Results: PubChem BioAssay AID488837 (National Center for Advancing Translational Sciences (NCATS), 2010)
In all, about 330,000 compounds went through this assay and about 20 (0.006%) were called active. Inconclusive means that the source gave no clear call. Such entries were picked first, then a sample of the others. Calls come from the whole dose curve; as a rule, active = well fitted inhibition curve with a large enough effect; inconclusive = small, poorly fitted or top-dose-only effect, or effect the other way; inactive = flat fitted curve, though single readings scatter. Potencies of inconclusive entries are doubtful fits and often do not repeat.

By UniProt entry, the sequences of proteins in these tests, tags left out. Where a name states a change or a piece, a line headed by the entry shows the natural chain unless it says otherwise.
UniProt O00167: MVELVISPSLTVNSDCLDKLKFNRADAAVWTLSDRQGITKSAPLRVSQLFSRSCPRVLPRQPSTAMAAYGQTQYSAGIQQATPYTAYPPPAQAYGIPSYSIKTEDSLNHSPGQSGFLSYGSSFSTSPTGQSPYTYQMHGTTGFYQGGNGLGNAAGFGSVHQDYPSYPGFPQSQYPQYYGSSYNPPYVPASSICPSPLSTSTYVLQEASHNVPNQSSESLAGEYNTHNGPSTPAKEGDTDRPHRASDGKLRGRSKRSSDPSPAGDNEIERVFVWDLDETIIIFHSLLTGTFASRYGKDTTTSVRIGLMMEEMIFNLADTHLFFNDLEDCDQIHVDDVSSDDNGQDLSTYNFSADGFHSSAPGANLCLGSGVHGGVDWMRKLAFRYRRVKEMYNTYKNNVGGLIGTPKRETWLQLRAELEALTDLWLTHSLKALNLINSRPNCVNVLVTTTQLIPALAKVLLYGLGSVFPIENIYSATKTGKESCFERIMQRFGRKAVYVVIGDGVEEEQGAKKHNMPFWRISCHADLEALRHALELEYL

What follows are compounds tested against Protein phosphatase EYA2 (Homo sapiens) (UniProt O00167) (assay: qHTS Assay for Inhibitors of the Phosphatase Activity of Eya2). Conditions: recombinant Eya2, OMFP fluorescence dephosphorylation (OMFP is methylfluorescein phosphate); activity, negative = inhibition: at 76.9 µM (top of the series) unless noted.
How it was run: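 Eya2 protein (added as 0.2 uM solution) was preincubated with compound for 10 min at ambient temperature in 50 mM HEPES pH 7.5, 50 mM NaCl, 5 uM MgCl2, 0.05% BSA, 1 mM DTT. OMFP (added at 50 uM) then reacted 10 min; fluorescence read at 485/525 nm.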
% is set by controls: 0 for no effect and ±100 for the full control effect; potency is the fitted concentration of half-maximal effect.

Compound | activity, negative = inhibition | Potency
CC1(C)Cc2c(C#N)c(NC3CCCCC3)nc(-c3ccco3)c2CO1 | inactive: -30.6% | –
O=C(NC(=S)Nc1ccccc1N1CCCCC1)c1ccc(F)cc1Cl | – | inconclusive: 20 µM [inhibitor, partial curve, poor fit]
Cc1ccc(NC(=O)CCNS(=O)(=O)c2ccc3c(c2)CCC(=O)N3)c(Br)c1 | – | inconclusive: 22.4 µM [inhibitor, single point]
CC(=O)c1cccc(NC(=O)CCC(=O)c2ccc(F)cc2)c1 | – | inconclusive: 20 µM [inhibitor, single point]
COc1ccccc1OCC(=O)N/N=C1/C=C(C)CC1 | inactive: 12.1% | –
COc1cc2c(cc1OC)C1O[C@](c3ccsc3)(C2)Oc2cc(-c3ccccc3)oc(=O)c21 | inactive: 19.1% [at 15.4 µM] | –
CC(C)c1ccc(OCC(=O)NC2CCCC2)cc1 | – | inconclusive: 355 µM [inhibitor, partial curve, poor fit]
COc1ccc(NC(=O)CC2C(=O)NCCN2C(=O)c2ccc(N(C)C)cc2)cc1 (stereo not drawn) | – | inconclusive: 100 µM [inhibitor, single point]
CN(NC(=O)c1ccccc1F)c1ncccc1[N+](=O)[O-] | – | inconclusive: 28.2 µM [inhibitor, single point]
Cc1cc(C)n2nc(SCC(=O)NC(=O)c3ccccc3)nc2n1 | inactive: -0.691% | –
COc1ccc(C2CC(c3ccc4ccccc4c3OC(C)=O)=NN2C(C)=O)cc1 (stereo not drawn) | – | inconclusive: 100 µM [inhibitor, single point]
C[C@H](CO)N1C[C@H](C)[C@@H](CN(C)C(=O)Nc2ccc3c(c2)OCO3)Oc2c(NC(=O)Nc3ccc4c(c3)OCO4)cccc2C1=O | inactive: 6.16% | –
C=CCN(c1ccccc1)S(=O)(=O)c1cccc(C(=O)OCC(=O)NCCOC)c1 | inactive: -2.71% | –
CN(Cc1cnn(-c2ccc(F)cc2)c1)Cc1nc(Cc2ccccc2)no1 | – | inconclusive: 200 µM [inhibitor, partial curve]
Cc1c(NS(=O)(=O)c2ccc(N)cc2)c(=O)n(-c2ccccc2)n1C | – | inconclusive: 11.2 µM [inhibitor, partial curve, poor fit]
Nc1cc(C(=O)c2ccccc2)ccc1N1CCOCC1 | inactive: 1.74% | –
CC(=O)Nc1ccc(S(=O)(=O)NCC2CCC(C(=O)NCCCOC(C)C)CC2)cc1 (stereo not drawn) | – | inconclusive: 20 µM [inhibitor, single point]
Cc1cc(C)c(NC(=O)COC(=O)C2CCN(c3ccc(C(F)(F)F)cn3)CC2)c(Cl)c1 | – | inconclusive: 79.4 µM [inhibitor, partial curve, poor fit]
CCOc1ccc(C(=O)OCC(=O)Nc2cccnc2Cl)cc1OCC | inactive: 1.11% | –
CCOC(=O)c1cc(-c2csc(-c3ccc(C(F)(F)F)cc3)n2)on1 | – | inconclusive: 112 µM [inhibitor, partial curve, poor fit]
Nc1nc(NCc2ccco2)nc(NC2CCCCC2)c1[N+](=O)[O-] | – | inconclusive: 89.1 µM [inhibitor, single point]
O=C(Nc1ccc(SC(F)F)cc1)c1ccc(F)cc1 | inactive: 4.7% | –
COc1ccc([C@H]2Cc3cc(O)cc(O)c3C(=O)O2)cc1O | inactive: 3.42% | –

Compound | activity, negative = inhibition | Potency
Cc1cc(-c2ccc(N=Nc3c(S(=O)(=O)O)cc4cc(S(=O)(=O)O)cc(N)c4c3O)c(C)c2)ccc1N=Nc1c(S(=O)(=O)O)cc2cc(S(=O)(=O)O)cc(N)c2c1O | – | inconclusive: 79.4 µM [inhibitor, partial curve]
NS(=O)(=O)c1ccc(Nc2ccccc2)c([N+](=O)[O-])c1 | – | inconclusive: 100 µM [inhibitor, single point]
COc1cc(CN2CCN(Cc3ccco3)CC2)cc(OC)c1 | – | inconclusive: 28.2 µM [inhibitor, single point]
COCCNC(=O)/C(C#N)=C/c1cccc(/C=C(\C#N)C(=O)NCCOC)c1 | inactive: -8% | –
COc1ccc(F)cc1C(=O)C1CCCN(C(=O)c2ocnc2C)C1 (stereo not drawn) | inactive: 13.2% | –
O=C(N/N=C/c1ccccc1O)c1cccc(C(F)(F)F)c1 | inactive: -7.81% | –
Cc1nn(-c2ccccc2)c(C)c1C(=O)OCc1ccc(C#N)cc1 | – | inconclusive: 100 µM [inhibitor, single point]
COc1ccc(OC)c(/C=C/C(=O)c2ccc3c(c2)OCCO3)c1 | – | inconclusive: 20 µM [inhibitor, single point]
O=C(Nc1ccccc1)OCCOc1cccc(Br)c1 | – | inconclusive: 89.1 µM [inhibitor, single point]
Cc1ccc(C(=O)CSc2nnc(CNc3ccc(F)cc3)o2)cc1 | – | inconclusive: 251 µM [inhibitor, partial curve, poor fit]
CC(=O)c1ccc(O[C@@H]2O[C@H](CO)[C@@H](O)[C@H](O)[C@H]2O)cc1 | – | inconclusive: 11.2 µM [inhibitor, single point]
CN(C)c1ccc(/C=C2\SC(=S)N(Nc3ncc(C(F)(F)F)cc3Cl)C2=O)cc1 | – | inconclusive: 15.8 µM [activator, partial curve]
Cc1cc(OCC(=O)Nc2nnc(C3CC3)s2)ccc1C(C)C | – | inconclusive: 17.8 µM [inhibitor, single point]
COc1ccc(NC2CC(=O)N(c3ccccc3)C2=O)cc1 (stereo not drawn) | inactive: -15.8% | –
Cc1cc(C)c2c(CN3CCN(CCO)CC3)cc(=O)oc2c1 | – | inconclusive: 158 µM [inhibitor, partial curve, poor fit]
Cc1ccc(CSc2nnc(C(F)(F)F)n2Cc2ccc(F)cc2)cc1 | – | inconclusive: 35.5 µM [inhibitor, partial curve, poor fit]
CC(C(=O)Nc1ccccn1)c1ccccc1 (stereo not drawn) | – | inconclusive: 89.1 µM [inhibitor, single point]
COc1ccc(N(CC(=O)N/N=C/c2ccc(N(C)C)cc2)S(=O)(=O)c2ccccc2)cc1 | – | inconclusive: 158 µM [inhibitor, single point]
COC(=O)C1Cc2c([nH]c3ccccc23)C(C(C)C)N1 (stereo not drawn) | – | inconclusive: 20000 µM [inhibitor, partial curve, poor fit]
CC(C)CCc1noc(CN(CC2CCC2)CC2CCCO2)n1 (stereo not drawn) | – | inconclusive: 100 µM [inhibitor, single point]
O=C(CNC(=O)Cc1cccc2ccccc12)NCc1ccccc1F | inactive: -3.71% | –
Cc1ccc(-c2onc(C)c2C)cc1S(=O)(=O)N1CCOc2ccccc21 | – | inconclusive: 1780 µM [inhibitor, single point]
O=C(CS)Nc1ccc2ccccc2c1 | – | inconclusive: 100 µM [inhibitor, single point]

Compound | activity, negative = inhibition | Potency
COc1cc(/C=C(/NC(=O)c2ccccc2)C(=O)Nc2cccc(O)c2)c([N+](=O)[O-])cc1OC | – | inconclusive: 141 µM [inhibitor, partial curve, poor fit]
COc1ccc(OCC(=O)Nc2ccc(S(=O)(=O)N3CCCC3)cc2)cc1 | – | inconclusive: 89.1 µM [inhibitor, single point]
COc1cccc(N2CCN(C(=O)c3ccc(N4C(=O)NC5CC4(C)Oc4ccccc45)cc3)CC2)c1 (stereo not drawn) | – | inconclusive: 17800 µM [inhibitor, single point]
CNc1snc(C)c1C(=O)OCC(=O)N(C)Cc1ccccc1 | – | inconclusive: 112 µM [inhibitor, single point]
Cc1cccc(C)c1NC(=S)NC(=O)CCc1ccccc1 | inactive: -0.815% | –
CCCc1cc(=O)n2[nH]c(NCc3c(Cl)cccc3Cl)nc2n1 | inactive: 18.5% | –
CNC(=O)c1nc(C)n(-c2ccc(Cl)cc2Cl)n1 | – | inconclusive: 141 µM [inhibitor, partial curve, poor fit]
CCc1ccc(NC(=O)C2CCN(S(=O)(=O)c3ccc4c(c3)CC(C)N4C(C)=O)CC2)cc1 (stereo not drawn) | inactive: 0.277% | –
Cc1ccc(S(=O)(=O)c2ncccc2[N+](=O)[O-])cc1 | – | inconclusive: 1120 µM [inhibitor, partial curve, poor fit]
O=C1c2ccccc2-c2onc3ccc(N4CCCC4)c1c23 | – | inconclusive: 31.6 µM [activator, partial curve]
COc1cc(C(=O)NCc2ccc(C(=O)NCC(OC)OC)cc2)cc(OC)c1OC | – | inconclusive: 22.4 µM [inhibitor, single point]
O=C(NC1CCCCC1)c1ccc2[nH]c(=O)c(=O)[nH]c2c1 | – | inconclusive: 112 µM [inhibitor, single point]
CC(C)OC(=O)c1c2c(n3ccccc13)C(=O)c1ccccc1C2=O | inactive: 2.7% | –
CCC(Sc1ccc2nnc(-c3ccc(F)cc3)n2n1)C(=O)O (stereo not drawn) | – | inconclusive: 25.1 µM [inhibitor, single point]
CN(C)c1ccnc(-n2cccc2/C=N/OCc2ccccc2)c1C#N | inactive: -2.27% | –
O=C(O)C1=C(Nc2ccccc2)OCC1=O | – | inconclusive: 17.8 µM [inhibitor, single point]
O=C(Oc1ccc(Cl)c2cccnc12)c1cccnc1 | inactive: 0.913% | –
C/C(=N/OC(=O)c1ccc(Cl)cc1Cl)c1oc(C)nc1C | – | inconclusive: 89.1 µM [inhibitor, single point]
COCCN(CCOC)Cc1c(O)ccc2c1O/C(=C\c1ccc(C)o1)C2=O | – | inconclusive: 79.4 µM [activator, partial curve, poor fit]
CCOC(=O)Cc1csc(NC(=O)c2cc(-c3ccncc3)nc3ccccc23)n1 | – | inconclusive: 89.1 µM [inhibitor, single point]
COc1ccc(CCNC(=O)COc2ccc3c(C)cc(=O)oc3c2)cc1OC | – | inconclusive: 17.8 µM [inhibitor, single point]
O=C(Nc1nc(-c2cc3ccccc3oc2=O)cs1)c1ccco1 | inactive: 0.417% | –

Ordered by count of non-hydrogen atoms (rising): some entries from above.
Compound | activity, negative = inhibition | Potency
O=C(CS)Nc1ccc2ccccc2c1 | – | inconclusive: 100 µM [inhibitor, single point]
O=C(Nc1ccc(SC(F)F)cc1)c1ccc(F)cc1 | inactive: 4.7% | –
CC(=O)c1ccc(O[C@@H]2O[C@H](CO)[C@@H](O)[C@H](O)[C@H]2O)cc1 | – | inconclusive: 11.2 µM [inhibitor, single point]
CCOc1ccc(C(=O)OCC(=O)Nc2cccnc2Cl)cc1OCC | inactive: 1.11% | –
Cc1ccc(-c2onc(C)c2C)cc1S(=O)(=O)N1CCOc2ccccc21 | – | inconclusive: 1780 µM [inhibitor, single point]
